# From PubChem BioAssay AID2685 (National Center for Advancing Translational Sciences (NCATS), 2010)
# Some of the results follow. These are further read-outs of the screen, such as a control signal, another cell line or another target. No call is given for them. The list favours compounds with an active or inconclusive main result. The note in brackets gives the kind of curve behind each potency; many fits are weak.
# Assay: qHTS Assay for Lipid Storage Modulators in Drosophila S3 Cells;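 for cell number change: cells counted by Cell Tracker Red CMTPX staining in the red channel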
# Settings: BODIPY lipid droplet fluorescence, 18-24 h; for cell number change: measured here: cell count max response, cells fed with added oleic acid
# Method in brief: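 Drosophila S3 cells got compounds at several concentrations plus oleic acid (400 uM solution). Laser-scanning cytometry with 488 nm excitation read lipid droplets at 500-530 nm and cells at 575-640 nm. Percent activity was relative to 20 uM Triacsin C.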
# [1] = measured here: cell number channel AC50, cells fed with added oleic acid
# [2] = measured here: lipid fluorescence (Fed channel) AC50, cells fed with added oleic acid
Compound,cell number change,AC50 [1],AC50 [2]
O=C(NC1CCS(=O)(=O)C1)/C(=C\c1ccco1)NC(=O)c1ccccc1 (stereo not given),-14.2%,"0.164 µM [falling, full curve, poor fit]",–
O=C(Nc1nnc(SCc2ccc(F)cc2)s1)c1ccccn1,-8.95%,"0.58 µM [falling, full curve, poor fit]","2.31 µM [falling, partial curve, poor fit]"
Cc1cccc(NCc2nc(SCC(=O)Nc3ccccc3Br)n[nH]2)c1,13.5%,–,"0.103 µM [rising, full curve, poor fit]"
COc1cc(-c2nn3c(-c4ccccc4)nnc3s2)cc(OC)c1OC,38.1%,"13 µM [rising, partial curve]","0.259 µM [rising, full curve]"
CCCCn1c(SCC(=O)OC)nc2c1c(=O)n(C)c(=O)n2C,-18.8%,–,"0.00517 µM [falling, full curve]"
CC(/C=C/C=C/c1ccccc1)=N/NC(=O)CNc1ccccc1C,8.22%,–,"29.1 µM [falling, single point]"
O=C(CN1CCCCCC1)Nc1cc([N+](=O)[O-])ccc1Cl,5.46%,–,"0.206 µM [rising, single point]"
O=C(Nc1cccc(S(=O)(=O)c2cccc(NC(=O)c3ccco3)c2)c1)c1ccco1,-12.5%,–,–
COc1ccc(/C=N/Nc2ccccc2)cc1Cn1nc(C)c([N+](=O)[O-])c1C,–,–,"6.51 µM [rising, single point]"
COc1ccc(Cl)cc1NC(=O)CN(C)CC(=O)NCc1cccs1,10.1%,–,"0.058 µM [rising, full curve, poor fit]"
CCN(CC)C(=O)CSc1nc2ncccc2[nH]1,11%,"0.092 µM [falling, full curve, poor fit]",–
COc1ccc2c3n(nc2c1)CCN=C3c1cc(Cl)c(N)c(Cl)c1,-12.3%,–,"5.8 µM [rising, full curve, poor fit]"
COCCCNC(=S)N/N=C/c1ccc(O)cc1O,-9.68%,–,"1.16 µM [falling, full curve]"
Cc1ccc(NC(=O)CN2C(=O)S/C(=C\c3cc(Cl)c(OCC(=O)O)c(Cl)c3)C2=O)cc1,1.76%,–,–
Cc1ccc(N2CC(C(=O)Nc3ccccc3C(=O)N3CCOCC3)CC2=O)cc1 (stereo not given),-15.5%,–,"3.26 µM [rising, partial curve]"
CCOC(=O)C1CCN(Cc2cccc(OC)c2)CC1,12.8%,–,"6.51 µM [rising, full curve, poor fit]"
COc1ccccc1C(=O)Nc1cc(Cl)ccc1-n1cncn1,30.1%,–,–
O=C1CC(N2CCN(c3ccc(O)cc3)CC2)C(=O)N1c1ccc2c(c1)OCO2 (stereo not given),27%,–,"0.13 µM [falling, full curve, poor fit]"
COc1ccc(CNC(=O)N2CCN(C(=O)c3ccccc3)CC2)cc1,-18.1%,–,–
O=C1c2[nH]nc(-c3ccccc3O)c2C(c2ccc(F)cc2)N1Cc1ccco1 (stereo not given),-51.1%,"18.4 µM [falling, single point]","29.1 µM [falling, single point]"
O=C(O)CSc1nc2c(c(C(F)(F)F)n1)CCc1ccccc1-2,25.2%,"0.92 µM [rising, full curve]","0.92 µM [rising, full curve]"

# 3 structures out of the list, sorted by formula weight, ascending.
Compound,cell number change,AC50 [1],AC50 [2]
O=C1c2[nH]nc(-c3ccccc3O)c2C(c2ccc(F)cc2)N1Cc1ccco1 (stereo not given),-51.1%,"18.4 µM [falling, single point]","29.1 µM [falling, single point]"
O=C1CC(N2CCN(c3ccc(O)cc3)CC2)C(=O)N1c1ccc2c(c1)OCO2 (stereo not given),27%,–,"0.13 µM [falling, full curve, poor fit]"
Cc1ccc(N2CC(C(=O)Nc3ccccc3C(=O)N3CCOCC3)CC2=O)cc1 (stereo not given),-15.5%,–,"3.26 µM [rising, partial curve]"

# Following part

Compound,cell number change,AC50 [1],AC50 [2]
CCn1c(COc2ccccc2OC)nnc1SCC#N,22.6%,–,–
COc1ccc(-n2nc(C(N)=O)c(O)cc2=O)cc1,–,–,"0.58 µM [rising, single point]"
CCN(CC)C(=O)CN1C(=O)NC2(CCc3ccccc3C2)C1=O (stereo not given),-46.5%,–,–
O=[N+]([O-])c1ccccc1OCCOCCOc1cccc2cccnc12,-10.1%,–,"2.06 µM [rising, full curve]"
COC(=O)CNC(=O)C(Cc1ccccc1)NS(=O)(=O)c1ccc2c(c1)c(=O)n(C)c(=O)n2C (stereo not given),-31.8%,"16.4 µM [falling, partial curve]","29.1 µM [falling, single point]"
CCOc1ccc(NC(=O)CN(C)C(=O)c2ccccc2CCc2ccccc2)cc1OCC,35.4%,"2.31 µM [rising, partial curve]","4.61 µM [rising, partial curve]"
COCc1cc(CNC(=O)C2CCC(=O)N(Cc3cccc(OC)c3)C2)[nH]n1 (stereo not given),16%,–,–
CSc1nccc(-c2nn(-c3ccc(C)cc3)ccc2=O)n1,89.7%,"5.8 µM [rising, full curve]",–
CCOc1cc(/C=C(\C#N)c2nc(-c3cccs3)c(NC(C)=O)s2)ccc1O,-30.1%,–,–
O=C(CCCOc1ccc(Cl)cc1)N1CCCCCC1,-33.3%,"23.1 µM [falling, single point]",–
CCCCNc1c(N)n(CCC)c(=O)[nH]c1=O,–,"0.0731 µM [rising, full curve, poor fit]",–
O=P(c1ccccc1)(c1ccccc1)C1CCCO1 (stereo not given),-35.7%,"18.4 µM [falling, single point]","5.8 µM [falling, full curve, poor fit]"
Cc1ccc(NC(=O)CC2OC(=O)c3ccccc32)cc1S(=O)(=O)N1CCOCC1 (stereo not given),5.23%,–,"18.4 µM [rising, partial curve, poor fit]"
CCCCc1nc(SCc2ccc([N+](=O)[O-])cc2)n[nH]1,22.9%,–,–
COc1cccc(C(=O)COC(=O)C(C)N2C(=O)C3C4C=CC(C4)C3C2=O)c1 (stereo not given),20.1%,–,"0.013 µM [rising, full curve]"
Cc1ccc(CN2C(=O)C(=O)N(CC(N)=O)C2=O)cc1,26.5%,–,"8.2 µM [rising, partial curve]"
COc1ccc(S(=O)(=O)N2CCC(C(=O)NCCC3=CCCCC3)CC2)cc1C,–,–,"2.91 µM [falling, partial curve, poor fit]"
CCc1noc(C)c1C(=O)Nc1ccc(C#N)cc1,-1.27%,"0.146 µM [falling, full curve]","6.51 µM [falling, single point]"
CN(C)Cc1c(O)ccc2occ(C(O)c3ccccc3)c12 (stereo not given),-28.3%,"1.84 µM [falling, full curve, poor fit]",–
C=C(C)COc1ccc(-c2[nH]ncc2-c2ccc(Br)cc2)c(O)c1,-58.2%,"20.6 µM [falling, single point]","18.4 µM [falling, partial curve]"
O=C(CNC(=O)c1ccccc1Br)N/N=C/c1cccs1,16.3%,–,–

Compound,cell number change,AC50 [1],AC50 [2]
Cc1ccc(NC(=O)C2CCCN2C(=O)OCc2ccccc2)cc1C (stereo not given),6.94%,–,–
CCOc1ccc(NC(=O)CN(C)C(=O)C2CC(=O)N(c3ccc4c(c3)OCCO4)C2)cc1OCC (stereo not given),19.8%,–,"13 µM [rising, partial curve]"
CCOc1ccc(/C=N/O)cc1,18.7%,–,–
Oc1c(I)cc(Cl)c2cccnc12,-44.3%,"23.1 µM [falling, partial curve]","32.6 µM [falling, partial curve]"
CCCN1CCN(CCCNC(=O)CCN2C(=O)COc3ccccc32)CC1,-5.42%,–,"6.51 µM [falling, single point]"
Cc1cc(O)c(/C=N/c2ccccn2)c(=O)o1,-183%,"29.1 µM [falling, partial curve]","23.1 µM [falling, partial curve]"
CC1(C)CC(=O)c2sc(NS(C)(=O)=O)nc2C1,-1.34%,–,"2.06 µM [falling, partial curve]"
Cc1ccc2nc(CCc3nc4ccc(C)cc4[nH]3)[nH]c2c1,-15.4%,–,"20.6 µM [falling, single point]"
CC(=O)NC12CC3CC(C1)CC(C(=O)N(C)Cc1cccc(Cl)c1Cl)(C3)C2,20.5%,–,–
CCOC(=O)C1=C(Cn2ccc(C(F)(F)F)n2)NC(=O)NC1c1ccc2c(c1)OCO2 (stereo not given),4.92%,–,–
Nc1cc(N)nc(SCc2cccnc2)n1,56.7%,"10.3 µM [rising, partial curve]","16.4 µM [rising, partial curve]"
CCCN1C(=O)/C(=C/c2ccc(N3CCCC3)c(C)c2)NC1=S,-28.2%,–,–
COc1ccc(-c2csc(N3C(=O)CNC3=S)n2)cc1,-24.2%,"0.13 µM [rising, full curve, poor fit]","1.84 µM [rising, partial curve]"
Cc1cc(NC(=O)C(C)SCC(=O)N(Cc2ccccc2)c2ccccc2)no1 (stereo not given),-14.9%,–,–
CCCNC(=O)NC(=O)CSc1nnc(-c2c[nH]c3ccccc23)o1,23.9%,–,"29.1 µM [falling, single point]"
CCCn1c(O)c(N=NC(=O)c2ccco2)c2ccccc21,-9.51%,"0.164 µM [falling, full curve]","18.4 µM [rising, single point]"
Cc1ccc(C(=O)C2=C(O)C(=O)N(Cc3cccnc3)C2c2ccc(OC(C)C)cc2)o1 (stereo not given),-9.73%,–,"0.58 µM [rising, single point]"
CN(C)S(=O)(=O)c1cccc(C(=O)OCC(=O)Nc2ccc3c(c2)OCCO3)c1,-38%,"0.00461 µM [falling, full curve, poor fit]","0.00517 µM [falling, full curve, poor fit]"
O=C(Nc1ccc(N2CCN(C(=O)c3ccccc3F)CC2)cc1)c1ncn[nH]1,-6.81%,–,"2.31 µM [falling, partial curve, poor fit]"
CCOC(=O)c1c(NC(=O)COC(=O)CNC(=O)c2ccco2)sc(C(C)=O)c1C,14.8%,"0.146 µM [rising, full curve, poor fit]","1.64 µM [rising, partial curve]"
